Over roughly 33,000 sequences, “E-score (-0.5 to 0.5)” has its median near -8e-05; the highest 2% begin near 0.23. The list shows a part of the results.
Target: T1, Nrg2 (UniProt P38082)
T1 sequence: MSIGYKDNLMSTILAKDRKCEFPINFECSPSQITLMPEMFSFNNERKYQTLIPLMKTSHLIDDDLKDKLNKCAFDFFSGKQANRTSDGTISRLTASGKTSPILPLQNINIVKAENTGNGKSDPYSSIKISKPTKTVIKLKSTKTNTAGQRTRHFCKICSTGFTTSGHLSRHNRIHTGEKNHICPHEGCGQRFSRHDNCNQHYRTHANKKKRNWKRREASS
Assay: PBM E-score (8-mer binding enrichment) (E-score (-0.5 to 0.5)); higher = stronger / more preferred TF binding
Conditions: protein concentration: 100 nM; construct: GST-full length
Method in brief: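 Masliner-normalised scans of fluorescent anti-GST signal were the basis for scoring. That signal came from GST-tagged yeast transcription factors applied at about 100-200 nM to double-stranded universal all-10-mer Agilent arrays on fresh or once-stripped slides. Each ungapped eight-base word, pooled with its reverse complement, received an E-score from the Universal PBM Analysis Suite.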

Sequence	PBM E-score
GAACTCGC	-0.0686
TCTCAACA	0.0641
CCCGCGCC	-0.0567
AGTAGCCG	0.072
ACTTCCAG	-0.108
AATTAGCG	0.0979
AGAACGTA	0.0133
AGGTCCGA	0.0912
CTAGCTCC	-0.153
ACTCTTCT	0.0002
GAAGAGGA	-0.319
AATGTCTC	0.0137
ATTCTAAG	-0.105
CCCTCCCC	0.00621
AACAATGA	0.0419
CCACCCCG	-0.0386
CCTCAAAC	0.0223
AGACGACA	0.0291
ATATCTGA	0.183
ACCATAAG	-0.0907
GAGATTGA	0.0287
ACCTGGAA	0.203
ATGCCGCA	0.172
CATTCCCA	-0.00455
CAGGGATA	0.286

Sequence	PBM E-score
TTCACAAA	-0.0254
GACCAAGA	0.0552
CAGACGTA	-0.181
AAACCGCC	0.041
CCCAGCTA	-0.0456
GCTCATCC	0.0527
ACGCCCCC	-0.156
CGCACGTA	-0.00821
TTACCTAA	-0.0262
GGGCGTAC	0.0663
GAATATTA	0.232
CCAATGCG	-0.127
CTGCGGTA	-0.00643
ACCATTTA	-0.00179
GTTGAAGA	0.0239
GACACTAA	0.131
AAGATCAA	0.088
ATCTATGC	0.117
TCTCGTCA	0.0764
CCGACTAA	-0.134
GATCTCAC	-0.0162
AATTAATC	0.0951
GTTGCAAA	0.158
AATAGCCA	0.035
CTCCGCGC	-0.0513

Some of the entries so far, as a markdown table:

| Sequence | PBM E-score |
| --- | --- |
| GGGCGTAC | 0.0663 |
| ATCTATGC | 0.117 |

Next part.

Sequence	PBM E-score
CTGCATGC	0.144
AGGGTCTC	0.308
AGTGCCTC	-0.108
CGCGATAG	0.15
ATCGTACG	0.086
AACAGCCC	-0.136
GAGAACTC	-0.111
AAACGCAC	-0.00143
CCCAGGTA	-0.151
CAATGGGC	-0.0843
CCCCTCGA	0.121
GCTTATAC	-0.208
TCTGGAAA	0.0743
AGAGAGTA	-0.0585
GAGGCAAC	-0.192
ACGTCCAA	-0.0568
GTTGGTAA	-0.043
CGCTGCTA	-0.0942
TCCACCGA	-0.0753
AAGGGATG	-0.0799
CGTGGAGA	-0.0602
ATGAGCGG	-0.0809
GGCTTAAC	-0.0343
ACGATTCG	0.107
TACTGCTA	0.0534

Quoted at random: 6 records from the list
Sequence	PBM E-score
CAGACGTA	-0.181
CGCGATAG	0.15
AAACCGCC	0.041
AACAGCCC	-0.136
GGCTTAAC	-0.0343
ATGCCGCA	0.172

(continued)

Sequence	PBM E-score
AGGGCCCT	0.432
AAACACAT	0.118
ATCTGCTC	-0.0264
GCAGGTTA	-0.0237
AAATGACT	-0.0401
ACTGCGGG	0.00944
ATCAGACG	0.0404
AGTCGTAC	-0.0754
ATCCTCGG	0.0757
AGAATAGC	0.117
TGGAGCAA	0.0576
ACGAGGGG	-0.201
GCGTTGAC	-0.0746
CCCAATAA	0.0301
AGCCATTG	0.0047
AAAGTCAT	-0.0344
AGGACTAA	-0.0768
CACGAGGG	-0.0848
GAGCGGAA	0.182
AATGTGAC	0.168
AGATCCAC	0.105
ACAGGTAG	-0.129
AGCAAGGA	-0.0607
CGTGTGCA	-0.102
AAACGCGC	0.0818

Sequence	PBM E-score
CAAGTGGG	-0.088
CACCCGTC	-0.0242
ACTCACTG	0.00588
AAGTGTAA	-0.0105
CAACGGCC	-0.0402
AACAACAA	0.1
TCAGTGCA	0.0253
AAAGGTTC	-0.0576
AGAATACG	-0.098
CACAACAG	-0.125
CTTGGTCC	0.0286
AAGGGAAG	-0.00193
AACCGGGA	0.0291
CAGCAGGA	-0.0714
GAACACAC	-0.0346
CAAATCCG	-0.112
CAATGGTC	0.0134
CACTGCCA	0.0346
AAGGTGTA	-0.0479
ACTGGCTG	-0.0262
ACAACTCC	0.13
GCGACTAC	0.0831
CCATGCAA	0.247
AAAGCATT	-0.0472
AACCCAGT	-0.00769

Sequence	PBM E-score
CGATCTAA	0.00408
GGGGGACC	-0.261
CTATACGC	0.0606
CTGCTTCC	-0.12
AGAAGTTC	-0.0862
CAGTCCCA	-0.189
AGCCTGGG	-0.159
CAACCTAG	-0.0396
AATGCTCC	-0.191
ATAATGGC	0.0701
GTCGAAAA	0.172
ATCCGGGG	0.134
TAAAACTA	0.0863
AATTAACA	0.207
TGGCGACA	0.00499
AGCTGTGA	-0.0158
CTTTAGTA	-0.00347
AGAATGAT	0.065
CAATAGTA	0.031
AAGTACTC	-0.0318
GTTGTCCA	0.124
GTTCGTAA	-0.0741
AAATCCAG	0.196
ACGCTTAT	-0.112
GACCAGGC	-0.197

Sequence	PBM E-score
AGAGACAG	0.0857
GTGCAGAA	-0.134
AGATTAGC	-0.0167
CTAGGATC	0.00898
ATTTGGAA	0.0293
TAATTCCA	0.0521
CTTGCGAC	-0.142
AACTCCAC	-0.00775
AAGGTCAA	-0.0299
GCAGAGCA	-0.156
GAGTCCTA	-0.166
ATAGGGTA	0.17
ATCGAGCC	-0.103
CGGCCCCA	-0.253
GCTTAACA	-0.0681
CATGCATA	0.0326
TGAAGGCA	0.00885
CTCACATA	0.0352
TAGTGGAA	-0.0809
TCGGTGCA	-0.0187
CCGGCAGA	-0.0781
CGGCGATC	-0.11

— the supplement of paper PMC3334620
